Patent US12491252B2, “Substituted 3-amino-5-phenylbenzamide compounds as covalent inhibitors of enhancer zeste homolog 2 (EZH2) and proteolysis-targeting chimeric derivatives thereof (PROTACs) that induce degradation of EZH2” (Northwestern University, priority 2021, dated 2025)
Some results were stated once for a whole list of compounds, not compound by compound.

Sequences of proteins named here, by UniProt entry; tags and fusion partners are left off.
UniProt Q15910, whole entry: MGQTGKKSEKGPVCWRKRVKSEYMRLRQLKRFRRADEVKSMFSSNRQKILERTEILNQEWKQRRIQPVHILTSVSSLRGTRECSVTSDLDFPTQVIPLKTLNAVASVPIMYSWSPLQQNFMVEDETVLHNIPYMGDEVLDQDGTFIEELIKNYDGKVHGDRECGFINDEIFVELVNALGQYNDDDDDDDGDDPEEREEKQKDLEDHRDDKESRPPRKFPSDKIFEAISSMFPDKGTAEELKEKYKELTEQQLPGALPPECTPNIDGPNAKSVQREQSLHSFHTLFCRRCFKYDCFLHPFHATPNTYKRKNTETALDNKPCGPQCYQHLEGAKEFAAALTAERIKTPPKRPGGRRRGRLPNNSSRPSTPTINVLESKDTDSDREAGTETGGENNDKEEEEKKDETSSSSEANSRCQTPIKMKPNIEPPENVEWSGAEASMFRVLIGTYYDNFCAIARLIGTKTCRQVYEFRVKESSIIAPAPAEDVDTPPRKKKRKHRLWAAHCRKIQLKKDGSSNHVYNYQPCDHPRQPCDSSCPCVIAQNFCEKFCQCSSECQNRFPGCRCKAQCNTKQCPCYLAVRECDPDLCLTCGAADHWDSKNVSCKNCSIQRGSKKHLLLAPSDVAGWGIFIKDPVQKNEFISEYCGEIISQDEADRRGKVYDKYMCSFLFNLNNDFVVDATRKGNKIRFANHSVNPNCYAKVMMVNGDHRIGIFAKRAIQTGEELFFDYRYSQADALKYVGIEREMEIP

Assays:
[1] = Pharmacokinetics in mice, IP cassette dosing, plasma LC/MS/MS; format: in vivo, C57Bl/6 mouse; conditions: C57Bl/6 mice; 4 mg/kg IP; cassette format
Protocol: FIG. 35. Pharmacokinetics of indicated compounds. Compounds were administered to C57Bl/6 mouse mice at 4 mg/kg using intraperitoneal (IP) injection in cassette format. Plasma was collected at the indicated time points and analyzed by LC/MS/MS using standard methods.
For assessing pharmacokinetics, compounds were administered to C57Bl/6 mouse mice at 4 mg/kg using intraperitoneal (IP) injection in cassette format. Plasma was collected at the indicated time points and analyzed by LC/MS/MS using standard methods.

EZH2 = EZH2 (Homo sapiens, UniProt Q15910); test: Western blot of EZH2 protein in C4-2B cells; conditions: for Degrading EZH2 protein at μM doses: FIG. 8, 24 hours; for Degrading EZH2 protein at nM doses: FIG. 9, 24 hours

| SMILES | Plasma concentration reached [1] [nM] | Degrading EZH2 protein at μM doses (EZH2) | Degrading EZH2 protein at nM doses (EZH2) |
| --- | --- | --- | --- |
| CCN(c1cc(-c2ccc(CN3CCN(C(=O)CCCCCCCCCCC(=O)N[C@H](C(=O)N4C[C@H](O)C[C@@H]4C(=O)NCc4ccc(-c5scnc5C)cc4)C(C)(C)C)CC3)cc2)cc(C(=O)NCc2c(C)cc(C)[nH]c2=O)c1C)C1CCOCC1 [Compound 2304, (2R,4R)-1-[(2S)-2-(12-{4-[(3′-{[(4,6-dimethyl-2-oxo-1,2-dihydropyridin-3-yl)methyl]carbamoyl}-5′-[ethyl(oxan-4-yl)amino]-4′-methyl-[1,1′-biphenyl]-4-yl)methyl]piperazin-1-yl}-12-oxododecanamido)-3,3-dimethylbutanoyl]-4-hydroxy-N-{[4-(4-methyl-1,3-thiazol-5-yl)phenyl]methyl}pyrrolidine-2-carboxamide] | > 1000 |  |  |
| CCN(c1cc(-c2ccc(CN3CCN(C(=O)CCCCCCCCCCCCCCC(=O)N[C@H](C(=O)C4C[C@H](O)C[C@H]4C(=O)NCc4ccc(-c5scnc5C)cc4)C(C)(C)C)CC3)cc2)cc(C(=O)NCc2c(C)cc(C)[nH]c2=O)c1C)C1CCOCC1 (stereo partly drawn) [Compound 2305] | > 1000 |  |  |
| CCN(c1cc(-c2ccc(CN3CCN(C(=O)CCCCCCCCC(=O)N[C@H](C(=O)N4C[C@H](O)C[C@H]4C(=O)NCc4ccc(-c5scnc5C)cc4)C(C)(C)C)CC3)cc2)cc(C(=O)NCc2c(C)cc(C)[nH]c2=O)c1C)C1CCOCC1 [Compound 6271] |  | effective in degrading EZH2 protein | effective in degrading EZH2 protein |
| CCN(c1cc(-c2ccc(CN3CCN(C(=O)CCCCCCCCCC(=O)N[C@H](C(=O)N4C[C@H](O)C[C@H]4C(=O)NCc4ccc(-c5scnc5C)cc4)C(C)(C)C)CC3)cc2)cc(C(=O)NCc2c(C)cc(C)[nH]c2=O)c1C)C1CCOCC1 [Compound 6272] | > 1000 | effective in degrading EZH2 protein | effective in degrading EZH2 protein |
| CCN(c1cc(-c2ccc(CN3CCN(C(=O)CCCCCCCCCCCC(=O)N[C@H](C(=O)N4C[C@H](O)C[C@H]4C(=O)NCc4ccc(-c5scnc5C)cc4)C(C)(C)C)CC3)cc2)cc(C(=O)NCc2c(C)cc(C)[nH]c2=O)c1C)C1CCOCC1 [Compound 6273] |  | effective in degrading EZH2 protein | effective in degrading EZH2 protein |

Continued, values first:

| Plasma concentration reached [1] [nM] | Degrading EZH2 protein at μM doses (EZH2) | Degrading EZH2 protein at nM doses (EZH2) | SMILES |
| --- | --- | --- | --- |
|  | effective in degrading EZH2 protein | effective in degrading EZH2 protein | CCN(c1cc(-c2ccc(CN3CCN(C(=O)CCCCCCCC(=O)N[C@H](C(=O)N4C[C@H](O)C[C@H]4C(=O)NCc4ccc(-c5scnc5C)cc4)C(C)(C)C)CC3)cc2)cc(C(=O)NCc2c(C)cc(C)[nH]c2=O)c1C)C1CCOCC1 [NUCC-0226270] |
|  | effective in degrading EZH2 protein | effective in degrading EZH2 protein | CCN(c1cc(-c2ccc(CN3CCN(C(=O)CCCCCCCCCCCCC(=O)N[C@H](C(=O)C4C[C@H](O)C[C@H]4C(=O)NCc4ccc(-c5scnc5C)cc4)C(C)(C)C)CC3)cc2)cc(C(=O)NCc2c(C)cc(C)[nH]c2=O)c1C)C1CCOCC1 (stereo partly drawn) [NUCC-0226274] |
|  | effective in degrading EZH2 protein | effective in degrading EZH2 protein | CCN(c1cc(-c2ccc(CN3CCN(C(=O)CCCCCCCCCCCCCC(=O)N[C@H](C(=O)N4C[C@H](O)C[C@H]4C(=O)NCc4ccc(-c5scnc5C)cc4)C(C)(C)C)CC3)cc2)cc(C(=O)NCc2c(C)cc(C)[nH]c2=O)c1C)C1CCOCC1 [NUCC-0226275] |
